Results reported in patent US10483329B2, “Hole transporting material, hole transporting layer, OLED display panel electronic device comprising the same” (SHANGHAI TIANMA AM-OLED CO., LTD., priority 2016, dated 2019).

How the values were obtained:
[1] = Mask cleaning effect; conditions: time for all material on the red light MASK of hole transporting layer 203 to be completely cleaned, ultrasonic 40 kHz, 25° C.
Experimental: (3) Mask Cleaning Effect:
the time required for all the materials on the MASK of the red light of the hole transporting layer 203 to be completely cleaned at a fixed ultrasonic frequency of 40 kHz and at a temperature of 25° C.

[2] = Crosstalk test of OLED display panel; conditions: dark room, B screen, intensity ratio of green light of adjacent pixels when blue light intensity 0.1 Cd/m^2
Experimental: Performance tests of the OLED display panels in the Examples and Comparison Examples were carried out.
(2) Crosstalk test method: the program being transferred to the B screen in a dark room, testing the intensity ratio of the green light of adjacent pixels when the blue light intensity was 0.1 Cd/m^2, LGreen/LBlue;

[3] = Hole mobility rate of the hole transporting material/layer; type: physicochemical; conditions: hole transporting layer material

SMILES	Mask cleaning time [1]	LGreen/LBlue [2] [%]	hole mobility rate [3]
Cc1cc(N(c2ccc3c(c2)C(C)(C)c2ccccc2-3)c2ccc3c(c2)C(C)(C)c2ccccc2-3)ccc1-c1ccc(N(c2ccc3c(c2)C(C)(C)c2ccccc2-3)c2ccc3c(c2)C(C)(C)c2ccccc2-3)cc1 [Example 4]	25 ^ s	–	–
Cc1cccc(C)c1-c1ccc(N(c2ccc3c(c2)C(C)(C)c2ccccc2-3)c2ccc3c(c2)C(C)(C)c2cc(N(c4ccc(-c5c(C)cccc5C)cc4)c4ccc5c(c4)C(C)(C)c4ccccc4-5)ccc2-3)cc1 [Example 3]	25 ^ s	–	–
Cc1cccc(C)c1-c1ccc(N(c2ccc(-c3ccccc3)cc2)c2ccc(-c3ccc(N(c4ccc(-c5ccccc5)cc4)c4ccc(-c5c(C)cccc5C)cc4)cc3)cc2)cc1 [Comparison Example 3]	55 s	1.5	3.5×10^−4 cm^2/V·S
Cc1cc(-c2ccc(N(c3ccc(-c4ccccc4)cc3)c3ccc4c(c3)C(C)(C)c3ccccc3-4)cc2)cc(C)c1N(c1ccc(-c2ccccc2)cc1)c1ccc2c(c1)C(C)(C)c1ccccc1-2 [Example 1]	35 ^ s	–	–
Cc1cccc(-c2ccc(N(c3ccc(-c4cccc(C)c4)cc3)c3ccc4c(c3)C(C)(C)c3cc(N(c5ccc(-c6cccc(C)c6)cc5)c5ccc(-c6cccc(C)c6)cc5)ccc3-4)cc2)c1 [Example 2]	25 ^ s	–	–
